Consider two substances from patent US20100152418 (published 2010).

The nature of data set [1]: general procedure: Fmoc solid-phase peptide synthesis; pre-loaded Fmoc-Ala-NovaSyn TGA (Tentagel) resin. The following applies: whole synthesis; for final HPLC purity: 214 nm.
A short description of data set [2]: general procedure: Fmoc solid-phase peptide synthesis; Fmoc-Ala-NovaSyn TGA. The following applies: whole synthesis.

For “Amyloid β (1-25)S1-(27-36)S2-(38-42) [S1=(H2^+)Ser; S2=(ArgPro)Ser]”, in data set [1], the crude yield stood at 30%, the isolated yield came to 10.8% and the “final HPLC purity” value is over 96%. In data set [2] (scale 0.069 mmol), this substance displayed a crude mass of 100 mg.

Consider “Amyloid β (1-25)-S1-(27-42) [S1=(ArgPro)Ser]”, for which, in data set [1], the crude yield is recorded as 34%, the isolated yield is 13% and the “final HPLC purity” value was over 95%. In data set [2] (scale 0.05 mmol), this substance gave a crude mass of 80 mg.
